PubChem BioAssay AID1159578, Peter MacCallum Cancer Centre – 2015
In all, the deposit lists about 18,000 reagents; this is a part drawn at random. About 1,030 of all reagents (5.7%) count as active. 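Inactive calls also include pools with fewer than 3300 nuclei, whose migration was not assessed.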 Raw values vary from plate to plate and are shown uncorrected. Not all columns of the deposit are shown.

Screen: 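Genome-wide hunt for genes controlling movement of lymphatic endothelial cells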 (primary screen)
System: human lymphatic endothelial cells
Reagents: siRNA pool against human genes, 40 nM
Timing: 48 h after transfection
Measurement: 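High-content imaging of dye-stained cells in a scratch assay measures filled wound area and nuclei per well; duplicate means given as ratio to mock and robust z-score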
Direction: migration robust z-score: higher = faster migration into the scratch; nuclei per well: higher = more cells in the well
Rule for the call: 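Pools averaging fewer than 3300 nuclei are never called; remaining pools count as changed when migration robust z lies outside -2 to 2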
Meaning of the calls: active = migration changed; inactive = no migration change, or too few cells

Against S100A7 (S100 calcium binding protein A7) the deposit lists migration robust z-score -0.06; nuclei per well, duplicate mean 6102; inactive.
Against SPANXN3 (SPANX family member N3), the entry reads migration robust z-score -2.25; nuclei per well, duplicate mean 5974; active.
For ARL14EP (ARF like GTPase 14 effector protein), the values are migration robust z-score -0.28; nuclei per well, duplicate mean 6034; inactive.
DCST1 (DC-STAMP domain containing 1) showed migration robust z-score 0.54; nuclei per well, duplicate mean 5264; inactive.
MSTO1 (misato mitochondrial distribution and morphology regulator 1) showed migration robust z-score 0.03; nuclei per well, duplicate mean 5756; inactive.
SLC6A20 gave migration robust z-score -1.54; nuclei per well, duplicate mean 6252; inactive.
Silencing of PCDHB10 (protocadherin beta 10) came out at: migration robust z-score -0.01; nuclei per well, duplicate mean 6484; inactive.
Against NSMCE4A (NSE4A component of SMC5/6 complex) the deposit lists migration robust z-score 0.24; nuclei per well, duplicate mean 6361; inactive.
Depletion of DST (dystonin) came out at: migration robust z-score 0.22; nuclei per well, duplicate mean 5679; inactive.
For LILRA2 (leukocyte immunoglobulin like receptor A2) the deposit lists migration robust z-score -0.04; nuclei per well, duplicate mean 6228; inactive.
RNF34 (ring finger protein 34) gave migration robust z-score -0.78; nuclei per well, duplicate mean 5538; inactive.
With knock-down of ACP1 (acid phosphatase 1) the results were migration robust z-score -0.76; nuclei per well, duplicate mean 4227; inactive.
LCE2B (late cornified envelope 2B) gave migration robust z-score 0.38; nuclei per well, duplicate mean 5722; inactive.
For BMP2K (BMP2 inducible kinase), the values are migration robust z-score 0.18; nuclei per well, duplicate mean 5473; inactive.
GTF2E1 (general transcription factor IIE subunit 1) scored migration robust z-score -0.09; nuclei per well, duplicate mean 6136; inactive.
POLR1F (RNA polymerase I subunit F) showed migration robust z-score 0.42; nuclei per well, duplicate mean 6221; inactive.
Knock-down of CEP164 (centrosomal protein 164) gave: migration robust z-score 1.17; nuclei per well, duplicate mean 6285; inactive.
DMTF1 (cyclin D binding myb like transcription factor 1) gave migration robust z-score -0.99; nuclei per well, duplicate mean 6760; inactive.
After knock-down of HOGA1 (4-hydroxy-2-oxoglutarate aldolase 1), the screen gave migration robust z-score 2.19; nuclei per well, duplicate mean 7877; active.
With knock-down of TOMM20 (translocase of outer mitochondrial membrane 20), the record shows migration robust z-score 1.05; nuclei per well, duplicate mean 6583; inactive.
After knock-down of HGF (hepatocyte growth factor), the record shows migration robust z-score -0.49; nuclei per well, duplicate mean 5316; inactive.
